Data on 1 molecule can be found in paper PMC8176717.

The chains behind the UniProt entries cited, without tags or fusion partners.
UniProt P51809: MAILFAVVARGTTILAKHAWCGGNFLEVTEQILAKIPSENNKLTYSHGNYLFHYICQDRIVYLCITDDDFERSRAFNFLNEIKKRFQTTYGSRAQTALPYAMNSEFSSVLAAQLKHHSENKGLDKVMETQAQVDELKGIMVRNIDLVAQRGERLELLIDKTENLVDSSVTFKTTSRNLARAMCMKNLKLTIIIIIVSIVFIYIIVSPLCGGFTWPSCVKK

The target of this assay is vesicle associated membrane protein 7 (VAMP7) (human (endogenous in Huh7)) (UniProt P51809). Nature of the assay: co-IP; lysate of LINC00511-overexpressing Huh7 cells (lysed 48 h after transfection), anti-VAMP7 antibody or IgG, protein A/G-agarose beads, washed four times with lysis buffer; immunoblot for SNAP23. (In general: A western blot detects proteins with antibodies after separation by electrophoresis.)

These are yes or no findings as the source states them, for the method shown. Binding seen in cells or lysates may run through a third protein. Some results given as binding are weak or reduced against the parent protein; the word gives no strength.

B1: synaptosome associated protein 23 (SNAP23) (protein, UniProt O00161 1-211)
chain: MDNLSSEEIQQRAHQITDESLESTRRILGLAIESQDAGIKTITMLDEQKEQLNRIEEGLDQINKDMRETEKTLTELNKCCGLCVCPCNRTKNFESGKAYKTTWGDGGENSPCNVVSKQPGPVTNGQLQQPTTGAASGGYIKRITNDAREDEMEENLTQVGSILGNLKDMALNIGNEIDAQNPQIKRITDKADTNRDRIDIANARAKKLIDS
Turning to B1, the binding result was “binds”.
